Test results taken from paper PMC6491818, “Novel 4-Acrylamido-Quinoline Derivatives as Potent PI3K/mTOR Dual Inhibitors: The Design, Synthesis, and in vitro and in vivo Biological Evaluation” (Frontiers in Chemistry, 2019).

What was measured:
[1] = Liver microsomal stability assay, RLM
[2] = Liver microsomal stability assay, HLM; conditions: human, liver microsomes

- CLint scaled ([1]; Sprague-Dawley, rat, liver microsomes): 1180 mL/min/kg
- RLM Remaining% (T = 60min) ([1]; rat liver microsome, 60 min): 0.3%
- CLint scaled [2]: 190 mL/min/kg
SMILES: CCCNCC(O)COc1ccccc1C(=O)CCc1ccccc1 (stereo not drawn) [Propafenone, reference compound]
